Drawing on PMC7778541, this text covers binding for two molecules.

The assay has as its target T1, Deltex3 (human (endogenous in PTC cells)) (UniProt Q8N9I9).
T1 sequence: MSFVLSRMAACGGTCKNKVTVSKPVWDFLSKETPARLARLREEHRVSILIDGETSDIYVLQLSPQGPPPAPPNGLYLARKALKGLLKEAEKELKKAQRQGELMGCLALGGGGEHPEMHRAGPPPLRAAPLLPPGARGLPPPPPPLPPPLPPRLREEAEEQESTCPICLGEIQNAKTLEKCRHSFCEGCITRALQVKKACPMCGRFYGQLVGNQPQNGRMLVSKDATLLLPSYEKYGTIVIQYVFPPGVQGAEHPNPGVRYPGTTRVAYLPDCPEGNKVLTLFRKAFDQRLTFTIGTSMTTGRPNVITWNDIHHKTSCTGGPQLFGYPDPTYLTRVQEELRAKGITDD
As to the kind of experiment: affinity purification with mass spectrometry; IP-MS: cell lysate in IP lysis buffer, anti-DTX3 antibody or normal IgG overnight at 4 °C, Protein A/G PLUS-Agarose beads, 4 washes, eluted in SDT buffer for MS.

No constants are given. Whether binding was seen depends on the method and setting. In cells and extracts the contact can be indirect. These calls come from enrichment with a bait or labelling near it, and not all partners need be listed.

B1: Inter-alpha-trypsin inhibitor heavy chain H2 (protein, UniProt P19823 55-702)
chain: SLPGESEEMMEEVDQVTLYSYKVQSTITSRMATTMIQSKVVNNSPQPQNVVFDVQIPKGAFISNFSMTVDGKTFRSSIKEKTVGRALYAQARAKGKTAGLVRSSALDMENFRTEVNVLPGAKVQFELHYQEVKWRKLGSYEHRIYLQPGRLAKHLEVDVWVIEPQGLRFLHVPDTFEGHFDGVPVISKGQQKAHVSFKPTVAQQRICPNCRETAVDGELVVLYDVKREEKAGELEVFNGYFVHFFAPDNLDPIPKNILFVIDVSGSMWGVKMKQTVEAMKTILDDLRAEDHFSVIDFNQNIRTWRNDLISATKTQVADAKRYIEKIQPSGGTNINEALLRAIFILNEANNLGLLDPNSVSLIILVSDGDPTVGELKLSKIQKNVKENIQDNISLFSLGMGFDVDYDFLKRLSNENHGIAQRIYGNQDTSSQLKKFYNQVSTPLLRNVQFNYPHTSVTDVTQNNFHNYFGGSEIVVAGKFDPAKLDQIESVITATSANTQLVLETLAQMDDLQDFLSKDKHADPDFTRKLWAYLTINQLLAERSLAPTAAAKRRITRSILQMSLDHHIVTPLTSLVIENEAGDERMLADAPPQDPSCCSGALYYGSKVVPDSTPSWANPSPTPVISMLAQGSQVLESTPPPHVMRVEND
For B1, the binding result is given as “binds”.

B2: PDZ domain-containing protein 8 (protein, UniProt Q8NEN9 1-1154)
chain: MGLLLMILASAVLGSFLTLLAQFFLLYRRQPEPPADEAARAGEGFRYIKPVPGLLLREYLYGGGRDEEPSGAAPEGGATPTAAPETPAPPTRETCYFLNATILFLFRELRDTALTRRWVTKKIKVEFEELLQTKTAGRLLEGLSLRDVFLGETVPFIKTIRLVRPVVPSATGEPDGPEGEALPAACPEELAFEAEVEYNGGFHLAIDVDLVFGKSAYLFVKLSRVVGRLRLVFTRVPFTHWFFSFVEDPLIDFEVRSQFEGRPMPQLTSIIVNQLKKIIKRKHTLPNYKIRFKPFFPYQTLQGFEEDEEHIHIQQWALTEGRLKVTLLECSRLLIFGSYDREANVHCTLELSSSVWEEKQRSSIKTVELIKGNLQSVGLTLRLVQSTDGYAGHVIIETVAPNSPAAIADLQRGDRLIAIGGVKITSTLQVLKLIKQAGDRVLVYYERPVGQSNQGAVLQDNFGQLEENFLSSSCQSGYEEEAAGLTVDTESRELDSEFEDLASDVRAQNEFKDEAQSLSHSPKRVPTTLSIKPLGAISPVLNRKLAVGSHPLPPKIQSKDGNKPPPLKTSEITDPAQVSKPTQGSAFKPPVPPRPQAKVPLPSADAPNQAEPDVLVEKPEKVVPPPLVDKSAEKQAKNVDAIDDAAAPKQFLAKQEVAKDVTSETSCPTKDSSDDRQTWESSEILYRNKLGKWTRTRASCLFDIEACHRYLNIALWCRDPFKLGGLICLGHVSLKLEDVALGCLATSNTEYLSKLRLEAPSPKAIVTRTALRNLSMQKGFNDKFCYGDITIHFKYLKEGESDHHVVTNVEKEKEPHLVEEVSVLPKEEQFVGQMGLTENKHSFQDTQFQNPTWCDYCKKKVWTKAASQCMFCAYVCHKKCQEKCLAETSVCGATDRRIDRTLKNLRLEGQETLLGLPPRVDAEASKSVNKTTGLTRHIINTSSRLLNLRQVSKTRLSEPGTDLVEPSPKHTPNTSDNEGSDTEVCGPNSPSKRGNSTGIKLVRKEGGLDDSVFIAVKEIGRDLYRGLPTEERIQKLEFMLDKLQNEIDQELEHNNSLVREEKETTDTRKKSLLSAALAKSGERLQALTLLMIHYRAGIEDIETLESLSLDQHSKKISKYTDDTEEDLDNEISQLIDSQPFSSISDDLFGPSESV
In the case of B2, the binding result is given as “binds”.
